Reference: article PMC10937713
These are yes or no findings as the source states them, for the method shown. Binding seen in cells or lysates may run through a third protein. These calls come from enrichment with a bait or labelling near it, and not all partners need be listed.

Sequences of proteins named here, by UniProt entry; tags and fusion partners are left off. A change or cut given only in a name is not applied to a line headed by its entry.
UniProt O14744: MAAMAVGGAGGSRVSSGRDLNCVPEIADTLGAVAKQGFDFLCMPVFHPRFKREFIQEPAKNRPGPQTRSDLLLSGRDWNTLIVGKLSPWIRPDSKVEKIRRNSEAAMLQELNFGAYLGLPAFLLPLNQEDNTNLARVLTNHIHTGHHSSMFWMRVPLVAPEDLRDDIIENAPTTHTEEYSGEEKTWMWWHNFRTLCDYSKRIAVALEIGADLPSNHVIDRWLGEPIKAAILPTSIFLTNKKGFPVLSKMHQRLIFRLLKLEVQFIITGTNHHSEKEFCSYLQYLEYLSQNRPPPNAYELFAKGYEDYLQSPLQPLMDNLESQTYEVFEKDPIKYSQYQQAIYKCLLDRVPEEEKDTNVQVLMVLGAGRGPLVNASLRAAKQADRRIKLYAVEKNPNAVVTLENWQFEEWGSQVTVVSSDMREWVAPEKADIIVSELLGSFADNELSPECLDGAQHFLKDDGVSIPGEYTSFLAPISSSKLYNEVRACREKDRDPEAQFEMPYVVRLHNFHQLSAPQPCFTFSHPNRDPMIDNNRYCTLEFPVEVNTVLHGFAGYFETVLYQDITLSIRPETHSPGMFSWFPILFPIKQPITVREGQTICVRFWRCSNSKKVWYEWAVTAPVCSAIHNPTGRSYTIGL
UniProt Q96AE4: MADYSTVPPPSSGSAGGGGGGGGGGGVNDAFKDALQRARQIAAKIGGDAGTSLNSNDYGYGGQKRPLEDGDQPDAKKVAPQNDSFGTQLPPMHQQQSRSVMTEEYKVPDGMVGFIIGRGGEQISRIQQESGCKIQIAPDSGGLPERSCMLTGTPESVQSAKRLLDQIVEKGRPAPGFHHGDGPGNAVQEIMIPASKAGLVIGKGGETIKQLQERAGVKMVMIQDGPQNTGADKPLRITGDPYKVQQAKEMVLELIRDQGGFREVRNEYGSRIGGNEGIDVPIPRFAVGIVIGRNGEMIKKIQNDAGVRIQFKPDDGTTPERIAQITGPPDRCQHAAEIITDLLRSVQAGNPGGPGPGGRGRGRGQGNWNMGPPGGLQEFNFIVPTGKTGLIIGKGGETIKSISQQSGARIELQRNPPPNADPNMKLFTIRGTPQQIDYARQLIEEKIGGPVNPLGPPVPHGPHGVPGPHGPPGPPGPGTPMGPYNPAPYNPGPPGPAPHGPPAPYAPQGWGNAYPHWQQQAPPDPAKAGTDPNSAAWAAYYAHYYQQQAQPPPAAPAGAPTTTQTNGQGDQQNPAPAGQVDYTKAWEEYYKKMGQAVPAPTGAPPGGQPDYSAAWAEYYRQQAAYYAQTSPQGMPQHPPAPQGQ
UniProt P51116: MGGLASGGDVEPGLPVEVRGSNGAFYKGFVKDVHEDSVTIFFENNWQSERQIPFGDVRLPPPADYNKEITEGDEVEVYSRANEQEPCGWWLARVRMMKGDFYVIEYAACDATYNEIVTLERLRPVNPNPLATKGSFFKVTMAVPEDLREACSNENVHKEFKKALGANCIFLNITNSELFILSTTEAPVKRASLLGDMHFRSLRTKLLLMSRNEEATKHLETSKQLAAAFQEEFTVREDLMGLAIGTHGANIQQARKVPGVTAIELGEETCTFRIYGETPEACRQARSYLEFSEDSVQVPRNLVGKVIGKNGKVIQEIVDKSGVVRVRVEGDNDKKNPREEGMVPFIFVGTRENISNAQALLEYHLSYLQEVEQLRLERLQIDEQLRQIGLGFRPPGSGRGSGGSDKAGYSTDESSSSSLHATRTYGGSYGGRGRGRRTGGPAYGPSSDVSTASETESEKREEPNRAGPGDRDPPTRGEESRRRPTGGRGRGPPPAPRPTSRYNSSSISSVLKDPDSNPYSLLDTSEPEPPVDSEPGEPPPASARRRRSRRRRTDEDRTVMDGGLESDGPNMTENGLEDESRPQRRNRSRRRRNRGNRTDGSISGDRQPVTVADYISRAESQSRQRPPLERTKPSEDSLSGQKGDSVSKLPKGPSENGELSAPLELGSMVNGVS
UniProt Q13283: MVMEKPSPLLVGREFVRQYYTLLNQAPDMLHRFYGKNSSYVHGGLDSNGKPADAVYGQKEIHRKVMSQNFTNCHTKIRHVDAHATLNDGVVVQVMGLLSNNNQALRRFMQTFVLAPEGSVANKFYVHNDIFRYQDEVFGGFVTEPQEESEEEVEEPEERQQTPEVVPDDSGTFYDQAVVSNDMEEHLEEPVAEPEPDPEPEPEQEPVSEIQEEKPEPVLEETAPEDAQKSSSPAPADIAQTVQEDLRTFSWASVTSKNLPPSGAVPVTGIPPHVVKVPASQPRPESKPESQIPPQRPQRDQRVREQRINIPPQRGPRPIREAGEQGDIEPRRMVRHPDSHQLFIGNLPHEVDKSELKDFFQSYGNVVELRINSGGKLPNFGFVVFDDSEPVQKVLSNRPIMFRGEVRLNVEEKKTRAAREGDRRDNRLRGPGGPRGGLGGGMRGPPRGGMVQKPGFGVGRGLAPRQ
UniProt P35637: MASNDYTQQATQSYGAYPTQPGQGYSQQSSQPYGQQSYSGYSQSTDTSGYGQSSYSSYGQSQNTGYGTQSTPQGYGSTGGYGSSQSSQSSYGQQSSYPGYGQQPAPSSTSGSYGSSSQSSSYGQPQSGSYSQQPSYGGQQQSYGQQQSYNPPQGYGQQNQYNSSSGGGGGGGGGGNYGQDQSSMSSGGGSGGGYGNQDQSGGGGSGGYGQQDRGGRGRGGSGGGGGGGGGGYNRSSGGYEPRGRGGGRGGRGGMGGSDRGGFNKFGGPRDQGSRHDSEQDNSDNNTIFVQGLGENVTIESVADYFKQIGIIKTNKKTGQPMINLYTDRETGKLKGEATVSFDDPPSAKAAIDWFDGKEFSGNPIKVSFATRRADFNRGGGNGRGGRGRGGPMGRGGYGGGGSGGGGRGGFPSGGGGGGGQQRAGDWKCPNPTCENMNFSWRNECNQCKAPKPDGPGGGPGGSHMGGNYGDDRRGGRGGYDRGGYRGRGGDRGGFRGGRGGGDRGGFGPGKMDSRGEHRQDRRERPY

Molecular target: protein arginine methyltransferase 5 (PRMT5) (human (endogenous in MCF-7 and T47D)) (UniProt O14744)
Assay: affinity purification with mass spectrometry; PRMT5 antibody and rabbit IgG pulldowns of MCF-7_RBKO cell lysates; NP-40 lysis buffer (20 mM Tris-HCl pH 7.6, 150 mM NaCl, 0.1% NP-40, 1 mM EDTA); antibody overnight at 4 °C, protein-G Dyna beads; SDS-PAGE, tryptic digestion, MS; significant: log2FC >= 0.5 and FDR < 0.05

binding | Molecule
binds | FUBP1 (from UniProt Q96AE4 1-644)
binds | FXR2 (from UniProt P51116 1-673)
binds | G3BP1 (from UniProt Q13283 1-466)
binds | fused in sarcoma (FUS) (from UniProt P35637 1-526)
binds | COPR5 (protein, UniProt Q9NQ92 1-184) MDLQAAGAQAQGAAEPSRGPPLPSARGAPPSPEAGFATADHSSQERETEKAMDRLARGTQSIPNDSPARGEGTHSEEEGFAMDEEDSDGELNTWELSEGTNCPPKEQPGDLFNEDWDSELKADQGNPYDADDIQESISQELKPWVCCAPQGDMIYDPSWHHPPPLIPYYSKMVFETGQFDDAED
binds | FAM120A (protein, UniProt Q9NZB2 1-1118) MGVQGFQDYIEKHCPSAVVPVELQKLARGSLVGGGRQRPPQTPLRLLVDADNCLHRLYGGFYTDWVSGGQWNHMLGYLAALAKACFGGNIELFVFFNGALEKARLHEWVKRQGNERQTAQQIVSHVQNKGTPPPKVWFLPPVCMAHCIRLALIRFHVKVAQSIEDHHQEVIGFCRENGFHGLVAYDSDYALCNIPYYFSAHALKLSRNGKSLTTSQYLMHEVAKQLDLNPNRFPIFAALLGNHILPDEDLASFHWSLLGPEHPLASLKVRAHQLVLPPCDVVIKAVADYVRNIQDTSDLDAIAKDVFQHSQSRTDDKVIRFKRAIGYYSATSKPMSFHPPHYLAARPGPFGMPGMVPPHVPPQMLNIPQTSLQAKPVAPQVPSPGGAPGQGPYPYSLSEPAPLTLDTSGKNLTEQNSYSNIPHEGKHTPLYERSSPINPAQSGSPNHVDSAYFPGSSTSSSSDNDEGSGGATNHISGNKIGWEKTGSHSEPQARGDPGDQTKAEGSSTASSGSQLAEGKGSQMGTVQPIPCLLSMPTRNHMDITTPPLPPVAPEVLRVAEHRHKKGLMYPYIFHVLTKGEIKIAVSIEDEANKDLPPAALLYRPVRQYVYGVLFSLAESRKKTERLAFRKNRLPPEFSPVIIKEWAAYKGKSPQTPELVEALAFREWTCPNLKRLWLGKAVEDKNRRMRAFLACMRSDTPAMLNPANVPTHLMVLCCVLRYMVQWPGARILRRQELDAFLAQALSPKLYEPDQLQELKIENLDPRGIQLSALFMSGVDMALFANDACGQPIPWEHCCPWMYFDGKLFQSKLLKASREKTPLIDLCDGQADQAAKVEKMRQSVLEGLSFSRQSHTLPFPPPPALPFYPASAYPRHFGPVPPSQGRGRGFAGVCGFGGPYGETVATGPYRAFRVAAASGHCGAFSGSDSSRTSKSQGGVQPIPSQGGKLEIAGTVVGHWAGSRRGRGGRGPFPLQVVSVGGPARGRPRGVISTPVIRTFGRGGRYYGRGYKNQAAIQGRPPYAASAEEVAKELKSKSGESKSSAMSSDGSLAENGVMAEEKPAPQMNGSTGDARAPSHSESALNNDSKTCNTNPHLNALSTDSACRREAALEAAVLNKEE
